Data on 42 sequences can be found in PMC7819943, “Rice protein-binding microarrays: a tool to detect cis-acting elements near promoter regions in rice”.

Sequences of proteins named here, by UniProt entry; tags and fusion partners are left off.
UniProt Q0JBA9, entry or part of it: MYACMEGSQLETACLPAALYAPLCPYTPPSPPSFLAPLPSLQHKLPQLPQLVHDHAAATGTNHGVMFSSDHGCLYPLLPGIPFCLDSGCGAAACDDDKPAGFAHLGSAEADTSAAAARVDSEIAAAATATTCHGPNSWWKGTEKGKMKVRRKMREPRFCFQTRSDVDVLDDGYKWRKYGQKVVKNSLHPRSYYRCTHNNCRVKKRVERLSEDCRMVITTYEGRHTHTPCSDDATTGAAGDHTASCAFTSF

This is one part of the list.

The assay deals with OsWRKY34 (Oryza sativa, UniProt Q0JBA9 1-250). The assay can be described thus: protein-binding microarray (RPBM); PBS, 2% BSA, 51.3 ng/ul salmon testes DNA, 50 uM zinc acetate, 200 nM TF, 25 C, 1 h; high values mean tight binding. Particulars: protein: recombinant; tags: N-terminal polyhistidine and DsRed monomer fusion (pET32a); label: CyDye5-dUTP incorporated in the synthesized complementary strand; 3' TTTTT single-stranded linker to array surface; dsDNA, one strand shown. An outline of the steps:
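An Axon 4000B scanner gave the binding signal as per-feature fluorescence intensity in arbitrary units. This followed washing of a custom Agilent array that had been incubated for 1 h at 25 °C with 200 nM protein in PBS, 2% BSA, salmon testes DNA and 50 µM zinc acetate. The proteins were transcription factors fused at the N-terminus to polyhistidine and DsRed, expressed in E. coli BL21-CodonPlus and purified on Ni–NTA.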
As for “TGCGCTCGCACTCCACTGCTCGGCCCGCCTCGCTCGCGCCCGGAGTCACCTAGTGCAG”, the binding signal is 10400 fluorescence intensity (a.u.).
In the case of “TATAACACCAATGACTCTATCTTCATCCGCATGCGTGCCGCGGAGTCACCTAGTGCAG”, the binding signal is 9390 fluorescence intensity (a.u.).
For the sequence “ATGCGGATCTGAGTGGTGGTGGTGGTGGACTGGTGGTTGCCGGAGTCACCTAGTGCAG”, the binding signal is 11000 fluorescence intensity (a.u.).
In the case of “ACACTCTCCTTTCTCAAAACTTATGCTCTTTAGTTTTTCTCGGAGTCACCTAGTGCAG”, the binding signal is 9450 fluorescence intensity (a.u.).
Take “TCCTTTTCCTTTCTTTCTCTTTGTGTTTTCTTACGAGGGCCGGAGTCACCTAGTGCAG”: the binding signal is 9730 fluorescence intensity (a.u.).
Turning to “TCTCTCTCTCTCTCTGCTTCCGCGAGTGCTCGTTTTTTCCCGGAGTCACCTAGTGCAG”, the binding signal was 14900 fluorescence intensity (a.u.).
As for “ATTGCATGTGTTCACTAGCGACGACGCCGTTTTAGTTTCCCGGAGTCACCTAGTGCAG”, the binding signal was 10600 fluorescence intensity (a.u.).
For “CGTCCCGGCAGCTACCTCCGCTTTCCACCACGCCGGCCGACGGAGTCACCTAGTGCAG”, the binding signal was 10800 fluorescence intensity (a.u.).
In the case of “CACCCATGGGTTGGTGGGTACGGCCGTACGGGTGGGTAAACGGAGTCACCTAGTGCAG”, the binding signal is 9590 fluorescence intensity (a.u.).
As for “TCTTCTTCTTGCGCTTCTTGGCGCCGCCGCGGAGGCGGAGCGGAGTCACCTAGTGCAG”, the binding signal is 8650 fluorescence intensity (a.u.).
Regarding “ATTTTCTTTTGGGGACCATCTCATCTCACCCACCCTCAAACGGAGTCACCTAGTGCAG”, the binding signal was 9930 fluorescence intensity (a.u.).
Turning to “AGTTCCCAGCTTTCTCTTCCCATTTCGATTGCGGCCATCTCGGAGTCACCTAGTGCAG”, the binding signal was 8360 fluorescence intensity (a.u.).
For the sequence “ACCGCGCGTGCTCAGTCGTACTAGAACCAAATCACACTCTCGGAGTCACCTAGTGCAG”, the binding signal was 9060 fluorescence intensity (a.u.).
“ATTCTCTTCTGTTCTTGGATAGATATCCATCCGATCCGACCGGAGTCACCTAGTGCAG”: the binding signal was 8060 fluorescence intensity (a.u.).
As to “AAACATTCGAAATTACACACTTACACCTTCTACCTCTGCTCGGAGTCACCTAGTGCAG”, the binding signal was 8192 fluorescence intensity (a.u.).
“ACACATTCTCTCTCTCACTCACTCACTCTTCCTCTCTCTCCGGAGTCACCTAGTGCAG”: the binding signal was 8320 fluorescence intensity (a.u.).
As for “CTGGGTTCGTATCTTCATTGGGCTGCGATTTTCTCGATACCGGAGTCACCTAGTGCAG”, the figure is 11300 fluorescence intensity (a.u.); as for “ATCTACCTACTTTATGTCTGCACCCGAATTTTTGGGACTTCGGAGTCACCTAGTGCAG”, 8720 fluorescence intensity (a.u.).
As for “CGCCGCCGCCTCGCGCCATCGCCAACGCCGTCCCCGTCACCGGAGTCACCTAGTGCAG”, the binding signal was 9320 fluorescence intensity (a.u.).
For the sequence “ACACATTTCCCCATGCACATCTCCCTCAATCTCTCTCTCTCGGAGTCACCTAGTGCAG”, the binding signal was 8750 fluorescence intensity (a.u.).
“TTCTGCCCTGACTATCATAGCCACATCTCCATAATAGACACGGAGTCACCTAGTGCAG”: the binding signal was 9920 fluorescence intensity (a.u.).
As for “TCTCCTCATCATCCGAGTCGTCATCATCATCGTCGTCGTCCGGAGTCACCTAGTGCAG”, the binding signal was 8940 fluorescence intensity (a.u.).
On to “TTTGCTTGGCCTAGGGTTTGGTGGATTTGCGTCCCTGTGACGGAGTCACCTAGTGCAG”, for which the binding signal is 8960 fluorescence intensity (a.u.).
On to “ACTTAAGTACTGCCTAATAAACACACAGCGGCAAAATTGACGGAGTCACCTAGTGCAG”, for which the binding signal was 8120 fluorescence intensity (a.u.).
Take “GTGCAATAACCATTTCCTCTTTTTCCCTGATGTATTAACTCGGAGTCACCTAGTGCAG”: the binding signal is 9380 fluorescence intensity (a.u.).
As for “CTGGTATTTTTATTTTTCTCATGATGGGTTTATAATTTTACGGAGTCACCTAGTGCAG”, the binding signal was 9760 fluorescence intensity (a.u.).
As for “GTCACATTGTTGTTTCGGTACTCAAATTGCATTCCTCTGACGGAGTCACCTAGTGCAG”, the figure is 8980 fluorescence intensity (a.u.); as for “CGTCTCATTTTAAGTACAATTGTGGATTTCTGTGTCTAACCGGAGTCACCTAGTGCAG”, 10400 fluorescence intensity (a.u.); as for “GATTGTCATTTTCTCATTTTCTTTTATTTCCGGAATCTTTCGGAGTCACCTAGTGCAG”, 8910 fluorescence intensity (a.u.).
In the case of “ATGATCATAGCCATTTTTCCTCGCTTTAAATATTTGCTACCGGAGTCACCTAGTGCAG”, the binding signal is 8490 fluorescence intensity (a.u.).
The result for “ACCGCTCATCTCCACTCTCCACTACTCCAGATCTTGACATCGGAGTCACCTAGTGCAG” reads 8320 fluorescence intensity (a.u.); that for “AGGGTAGTGAGTCTTTTGGTTGGAGTGGAGTTGTGTAGCACGGAGTCACCTAGTGCAG”, 8570 fluorescence intensity (a.u.); that for “GTGATGTTTGATCTTGTTCTTGTTGTTGTTGTTGTGGATGCGGAGTCACCTAGTGCAG”, 8090 fluorescence intensity (a.u.).
On to “GTACTACTAGCTTGTCCAAGACTCGAGCCACTATATAAACCGGAGTCACCTAGTGCAG”, for which the binding signal was 8080 fluorescence intensity (a.u.).
For “ATATGTCGCCCTGCCATCTCATCCGCCCTACTACATCCGTCGGAGTCACCTAGTGCAG”, the binding signal is 12700 fluorescence intensity (a.u.).
With “CCGACCGTCACTTGCATTGTCCTCGTCCTCCGCCATCGACCGGAGTCACCTAGTGCAG”, the binding signal is 9350 fluorescence intensity (a.u.).
Take “GGCATCCCACTCCCAACGTATTTTCACACGCAACTATTTTCGGAGTCACCTAGTGCAG”: the binding signal is 8540 fluorescence intensity (a.u.).
With “TGTGGTGGGGCATGAGCAGTTCTTTTGTTTAGAATGTTTACGGAGTCACCTAGTGCAG”, the binding signal was 11900 fluorescence intensity (a.u.).
As for “CGGTCTACCCATGTCTATCAAGTATCAACTGGCCATTGACCGGAGTCACCTAGTGCAG”, the binding signal was 9960 fluorescence intensity (a.u.).
As for “CAGCCTCGATGACTCCATTTTCCCTGGCGGCGCCGCACCGCGGAGTCACCTAGTGCAG”, the binding signal was 10300 fluorescence intensity (a.u.).
As for “AAAAAGTCAACGGCGTCATATATTAAAATATGGAGAGAGTCGGAGTCACCTAGTGCAG”, the binding signal was 8150 fluorescence intensity (a.u.).
Take “ACTCGCCGTCGCCCACCCCTTCCGCTTTCCGCCGCCGCCGCGGAGTCACCTAGTGCAG”: the binding signal was 9760 fluorescence intensity (a.u.).
